How the values were obtained:
peptide synthesis = conditions: whole synthesis
[1] = general procedure: Fmoc solid-phase peptide synthesis; Rink amide MBHA resin (Novabiochem), 0.66 mmol/g; DIC/HOBt; conditions: whole synthesis, analytical HPLC and mass spectrometry, scale of the general procedure 50 μmol

Substance | final HPLC purity (peptide synthesis) | final HPLC purity [1]
Dop2-DPhe-Doc-DPhe-cyclo[Cys-3ITyr(Dop2)-DTrp-Lys-Val-Cys]-Thr-NH2 | 95% | 
Dop2-Lys(Dop2)-DTyr-DTyr-cyclo[Cys-Tyr-DTrp-Lys-Abu-Cys]-Thr-NH2 |  | 93.9%
Dop2-DLys(Dop2)-DPhe-cyclo[Cys-3ITyr-DTrp-Lys-Thr-Cys]-Thr-NH2 | 95.7% | 
Dop2-DPhe-cyclo[Cys-3ITyr-DTrp-Lys-Thr-Cys]-Thr-NH2 | 93.9% | 

Reference: patent publication US7517853 (dated 2009)
